The term AC50 denotes the midpoint of the concentration-response curve, whichever way the signal moves.

Our source for the AC50 values is PubChem BioAssay AID493014 (National Center for Advancing Translational Sciences (NCATS), 2011).

The list shows a part of the results. These are further read-outs of the screen, such as a control signal, another cell line or another target. No call is given for them. Compounds called inactive in the main read-out are mostly missing here. Words in brackets tell the shape of the fitted curve; partial curves, single points and poor fits give uncertain potencies.

The nature of the assay: qHTS Assay to Find Inhibitors of Chronic Active B-Cell Receptor Signaling. The conditions noted are these: ABC-DLBCL IkBa-CBG/CBR reporter, luminescence ratio (green luciferase fused to IkBa over red control in TMD8 lymphoma cells), 4 h. The essentials:
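TMD8 human ABC-DLBCL cells with doxycycline-inducible IκBα–green luciferase fusion and unfused red luciferase, in 0.5% FBS medium; compounds up to 46 uM, 4 h at 37C. Green/red luminescence ratio, filter-overlap corrected, fitted to concentration-response curves.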
For orientation: qHTS replaces the single test concentration by a dilution series.

Where [1] appears, read: measured here: CBR red luminescence, cell number.
The mark [2] stands for this setting: measured here: IkBa-CBG green luminescence.

In the case of `N/C(=N\OC(=O)Nc1ccccc1)c1ncc([N+](=O)[O-])s1`, the concentration at half-maximal activity (AC50) under setting [1] was 1.41 µM [rising, partial curve, poor fit].

For `O=C(Nc1nc(=O)c2ccccc2s1)c1ccc(Cl)cc1`, under setting [1], the AC50 is 0.259 µM [falling, full curve].

For the compound `COc1ccc(-n2cc(CNCCc3nc(C)cc(C)n3)c(-c3ccccc3Cl)n2)cc1`, the concentration at half-maximal activity (AC50) under setting [1] is 3.55 µM [falling, partial curve, poor fit].

For the compound `COc1ccc2[nH]c3c(=O)n(CCCCC(=O)N4CCC(C(N)=O)CC4)c(=S)[nH]c3c2c1`, under setting [1], the concentration at half-maximal activity (AC50) is 10 µM [falling, partial curve, poor fit].

Take `COc1ccc2nc(NC(=O)c3ccccc3-c3ccccc3C(=O)O)sc2c1`: under setting [1], the AC50 is 6.31 µM [falling, full curve].

`O=C(Nc1ccc(Oc2ccsc2C(=O)O)cc1)c1ccccc1`: under setting [1], the half-maximal activity concentration (AC50) was 14.1 µM [falling, partial curve, poor fit].

Take `CCOC(=O)c1cnc2ccc(OC)cc2c1Nc1ccc2c(c1)OCCO2`: under setting [1], the AC50 is 20 µM [falling, single point].

With `O=C(N/N=C/c1cccs1)c1n[nH]c2c1CCC2`, the AC50 under setting [1] was 8.2 µM [falling, partial curve].

For `COc1ccccc1NC(=O)/C=C1\NC(=O)CS1`, the concentration at half-maximal activity (AC50) under setting [1] was 0.316 µM [falling, full curve, poor fit].

Turning to `CC(N)(C(=O)O)c1cccc(OCc2cccc(Cl)c2)c1` (centres undefined), the AC50 under setting [1] was 11.2 µM [rising, partial curve, poor fit].

Consider `CC(C)C[C@H](NC(=O)c1nc[nH]c1C(=O)NCCCCCNC(=O)OC(C)(C)C)C(=O)OCc1ccccc1`, for which the AC50 under setting [1] was 17.8 µM [falling, single point].

As to `CC(=O)C1=C(C)NC(=O)CC1c1ccc(F)cc1` (centres undefined), the AC50 under setting [1] is 14.1 µM [rising, single point].

For the compound `Cc1nnc(SCc2cc(=O)[nH]c(=S)[nH]2)s1`, the AC50 under setting [1] was 0.794 µM [rising, full curve, poor fit].

Turning to `COc1cc(/C=C(\C#N)C(=O)Nc2cccc3ncccc23)cc(OC)c1OC`, under setting [1], the half-maximal activity concentration (AC50) is 23.1 µM [falling, partial curve, poor fit].

As for `COc1cc(C2C(C(=O)OC(C)C)=C(C)Nc3ncnn32)cc(OC)c1OC` (centres undefined), the AC50 under setting [1] was 6.51 µM [rising, single point].

Turning to `CC(C)[C@H](NC(=O)[C@@H]1CSCN1C(=O)OC(C)(C)C)C(=O)NCC1CCC(C(=O)O)CC1` (some centres undefined), the AC50 under setting [1] was 0.82 µM [rising, partial curve, poor fit].

`CN(C)C(=O)COc1ccc(S(=O)(=O)c2ccc(OCC(=O)N(C)C)cc2)cc1`: the AC50 under setting [1] was 14.1 µM [rising, single point].

For the compound `O=C(c1cccs1)n1nc(NCc2ccccc2)nc1NCc1ccccc1`, under setting [2], the concentration at half-maximal activity (AC50) is 16.4 µM [rising, partial curve, poor fit].

Turning to `S=C(NCCCN1CCOCC1)Nc1ccc(-c2nc3ccccc3[nH]2)cc1`, the AC50 under setting [1] is 20 µM [falling, single point].

Consider `CC(Sc1nc2ccccc2[nH]1)C(=O)Nc1ccc2c(c1)OCCO2` (centres undefined), for which the AC50 under setting [1] is 12.6 µM [falling, partial curve, poor fit].

As for `CNS(=O)(=O)c1cc(-c2nnc(Nc3ccc(NC(C)=O)cc3)c3ccccc23)ccc1C`, the AC50 under setting [1] was 7.94 µM [falling, partial curve, poor fit].

Consider `O=C1N=c2ccccc2=C1c1sc(=S)n(NC(=O)c2ccccc2)c1O`, for which, under setting [1], the concentration at half-maximal activity (AC50) was 1.58 µM [falling, partial curve, poor fit].

For `Cc1cc(Cl)ccc1OCC(=O)NCC(=O)N/N=C/c1ccco1`, the AC50 under setting [1] was 35.5 µM [rising, single point].

`Cc1ccc(-c2nnc(N3CCN(c4ccccn4)CC3)c3ccccc23)cc1`: under setting [1], the concentration at half-maximal activity (AC50) was 32.6 µM [falling, partial curve, poor fit].

Regarding `C=CCOc1c2ccc(C(=O)NCc3ccc(OC)cc3)cc2nn1C`, the AC50 under setting [1] is 3.98 µM [rising, full curve, poor fit].

With `O=C1c2ccccc2C(=O)N1/N=C/c1ccc(O)c(O)c1O`, the AC50 under setting [1] is 0.112 µM [rising, full curve, poor fit].

On to `O=C(Nc1ccccc1Cl)N1CCN(c2ccccn2)CC1`, for which the AC50 under setting [1] is 23.1 µM [falling, single point].

In the case of `O=C(CCN1C(=O)/C(=C\c2ccccc2)SC1=S)N1CCOCC1`, under setting [1], the AC50 is 5.62 µM [falling, single point].

As to `COC(=O)C1CCN(C(=O)COC(=O)c2cc(-c3ccccc3)nc3ccc(OC)cc23)CC1`, under setting [1], the AC50 was 6.51 µM [rising, full curve, poor fit].

Regarding `Cc1nn(CCCC(=O)Nc2cccnc2Cl)c(C)c1[N+](=O)[O-]`, the concentration at half-maximal activity (AC50) under setting [1] is 35.5 µM [falling, single point].

`Cc1nc(SCc2ccc([N+](=O)[O-])cc2)nc2ccccc12`: the half-maximal activity concentration (AC50) under setting [1] was 4.61 µM [rising, full curve, poor fit].

In the case of `CCOc1ccc(NC(=O)COC(=O)c2n[nH]c3ccccc23)cc1`, the AC50 under setting [1] is 29.1 µM [falling, single point].

For `O=C(CS(=O)(=O)c1c[nH]c2ccccc12)NC1CCCCC1`, under setting [1], the AC50 is 29.1 µM [falling, single point].

With `Cc1cc2c(ccc3[nH]onc32)n1`, the AC50 under setting [1] is 11.2 µM [falling, partial curve, poor fit].

Turning to `COc1ccccc1C1CC(c2ccco2)=NN1S(C)(=O)=O` (centres undefined), the concentration at half-maximal activity (AC50) under setting [1] is 7.94 µM [rising, partial curve].

For `CCOc1ccc(CCNC(=O)CCN2N=C(c3ccc(OC)cc3)CCC2=O)cc1OCC`, the AC50 under setting [1] is 2.51 µM [rising, full curve].

Regarding `Cc1ccc(Nc2nc(-c3ccccc3)c(CC(=O)O)s2)cc1`, the half-maximal activity concentration (AC50) under setting [1] was 22.4 µM [falling, single point].

For `COc1ccccc1-n1cnc2cc(NS(=O)(=O)c3ccc(Br)cc3)ccc21`, the AC50 under setting [1] was 11.6 µM [falling, partial curve, poor fit].

On to `OC(CNCc1ccc2c(c1)OCO2)COc1ccc(F)cc1` (centres undefined), for which the concentration at half-maximal activity (AC50) under setting [1] is 6.31 µM [falling, single point].

For `O=C(CCc1nc2ccccc2c(=O)[nH]1)OCc1ccccc1F`, the concentration at half-maximal activity (AC50) under setting [1] was 20.6 µM [falling, partial curve, poor fit].

On to `N/C(=N\OC(=O)Cc1ccccc1[N+](=O)[O-])c1cccc(Br)c1`, for which the AC50 under setting [1] is 2.51 µM [rising, full curve, poor fit].

Consider `O=C(COC(=O)/C(=C/c1cccs1)c1cccs1)NCc1ccccc1Cl`, for which, under setting [1], the concentration at half-maximal activity (AC50) is 29.1 µM [falling, single point].

For the compound `COc1cc(C(=O)NNC(=O)COc2cccc(F)c2)ccc1OCC(=O)N1CCOCC1`, the AC50 under setting [1] was 5.8 µM [rising, full curve, poor fit].

`CCOc1cc(/C=N/Nc2cccc(C(=O)O)c2)ccc1OC(=O)c1ccccc1`: the concentration at half-maximal activity (AC50) under setting [1] is 3.98 µM [falling, partial curve].

In the case of `CC(=O)Nc1ccc(NC(=O)Nc2cccc(C)c2C)cc1`, under setting [1], the concentration at half-maximal activity (AC50) is 2.82 µM [falling, full curve].

For `CCC(=O)N(C)C(c1ccccc1Cl)c1nnnn1-c1c(C)cccc1C` (centres undefined), the half-maximal activity concentration (AC50) under setting [1] is 0.411 µM [falling, partial curve, poor fit].

Consider `C=C1CCC[C@]2(C)C[C@H]3OC(=O)C(CNCC(OC)OC)[C@H]3CC12` (some centres undefined), for which, under setting [1], the AC50 is 11.2 µM [falling, partial curve, poor fit].

Consider `Cc1ccc(OC/C(=N\O)C(C)(C)C)c([N+](=O)[O-])c1`, for which the half-maximal activity concentration (AC50) under setting [2] was 35.5 µM [falling, partial curve, poor fit].

Take `O=C(Nc1cc(S(=O)(=O)N2CCCCC2)ccc1Cl)c1ccccc1NS(=O)(=O)c1ccc(F)cc1`: the concentration at half-maximal activity (AC50) under setting [1] was 7.31 µM [falling, partial curve].

Regarding `O=C(CNc1ccc2ccccc2c1)N/N=C/c1ccc(C(=O)O)cc1`, under setting [1], the AC50 is 35.5 µM [falling, single point].

Regarding `CCNc1sc(C(=O)c2cccs2)c(N)c1-c1nc2ccccc2s1`, the half-maximal activity concentration (AC50) under setting [1] is 12.6 µM [falling, partial curve].

For the compound `O=S(=O)(c1ccc2ccccc2c1)N1CCCCC1`, the AC50 under setting [1] was 0.517 µM [rising, full curve, poor fit].

`CCCCc1nc(S(=O)(=O)c2ccc(Cl)cc2)c(N2CCOCC2)o1`: under setting [1], the half-maximal activity concentration (AC50) was 3.26 µM [rising, full curve].

Consider `CCCN(CCC)S(=O)(=O)c1ccc(C(=O)Nc2nc3c(s2)CCc2ccccc2-3)cc1`, for which the concentration at half-maximal activity (AC50) under setting [1] is 8.2 µM [falling, partial curve].

In the case of `CCOC(=O)N1CCC(Nc2c(Nc3ccc(F)cc3)c(=O)c2=O)CC1`, under setting [1], the AC50 is 3.26 µM [falling, partial curve, poor fit].

Regarding `CCOC(OCC)c1ccc(/C=C\c2nccc(N)n2)cc1`, the AC50 under setting [1] is 2 µM [rising, full curve, poor fit].

With `Cc1cccc(/N=C/c2nc(-c3ccccc3Br)oc2O)n1`, under setting [1], the AC50 was 17.8 µM [falling, single point].

Regarding `COC(CN(C)C(=O)c1ccc2c(c1)NC(=O)c1ccccc1S2)OC`, the AC50 under setting [1] was 35.5 µM [falling, single point].

Regarding `CCn1nc(C(=O)Nc2ccccc2N2CCCC2)c2ccccc2c1=O`, the concentration at half-maximal activity (AC50) under setting [1] is 10.3 µM [falling, partial curve].

Regarding `COc1cc([C@H]2Oc3c(OC)cc(CCCO[C@@H]4O[C@H](CO)[C@@H](O)[C@H](O)[C@H]4O)cc3[C@@H]2CO)ccc1O`, under setting [1], the AC50 is 20.6 µM [rising, single point].

In the case of `O=C(NNC(=S)Nc1ccc(Cl)cc1)c1cccs1`, the AC50 under setting [1] is 7.94 µM [falling, partial curve].

In the case of `CCN1CCN(CCNC(=O)c2ccc(/C=C3/Sc4ccccc4N(Cc4ccccc4C)C3=O)cc2)CC1`, the half-maximal activity concentration (AC50) under setting [1] was 35.5 µM [falling, single point].

On to `CCc1nnc(NC(=S)Nc2ccccc2)s1`, for which the AC50 is 2.24 µM [falling, full curve] under setting [1] and 3.55 µM [falling, partial curve, poor fit] under setting [2].
